# Reference: patent US10549006B2, “High-coverage, low odor malodor counteractant compounds and methods of use” (International Flavors & Fragrances Inc., priority 2014, dated 2020)
# Assay: Organoleptic evaluation: odor character and intensity (averaged sensory scores)
# Details: odor description
# Method: (i) The organoleptic characters of the compounds (i.e., Compounds 1-6) were evaluated using an intensity scale of 0 to 3, where 0=none, 1=low and 3=strong. Averaged sensory scores were reported in the following: […]
row,SMILES,Character (organoleptic)
1,"COC1CCC(C(C)C)CC1 (stereo not drawn) [Compound 1, 1-methoxy-4-(methylethyl)-cyclohexane]","Light, camphoraceous, minty, terpineol-like"
2,"CCOC1C(C)CCCC1C (stereo not drawn) [Compound 2, 2-ethoxy-1,3-dimethyl-cyclohexane]","Spicy, camphor, fruity, apple"
3,"CC(C)CC1OC(C)CCC1C(C)CC=O (stereo not drawn) [Compound 3, 3-[6-methyl-2-(2-methylpropyl)tetrahydro-2H-pyran-3-yl]butanal]","Buttery, mushroom, chemical"
4,"CCCCCCOC1CCC(C)(C)O1 (stereo not drawn) [Compound 4, 5-hexyloxy-2,2-dimethyl-tetrahydro-furan]","Sweet, aldehydic, buttery"
5,"CC(C)C(C)C(C)C(C)O (stereo not drawn) [Compound 5, 3,4,5-trimethyl-hexan-2-ol]","Herbal, medicinal, fruity, dirty"
6,"CC(=O)C(C)C(C)C(C)C (stereo not drawn) [Compound 6, 3,4,5-trimethyl-hexan-2-one]","Herbal, green, metallic, medicinal"
